In PubChem BioAssay AID2551 (National Center for Advancing Translational Sciences (NCATS), 2010):
The whole screen tested about 310,000 compounds, of which about 17,000 (5.5%) were called active. This list was built around the results that the source calls inconclusive (neither active nor inactive); the mix of calls is not that of the screen. The call rests on the fitted dose curve; in most records, active means well fitted inhibition curve with a large enough effect; inconclusive means small, poorly fitted or top-dose-only effect, or effect the other way; inactive means no such curve, though single readings can be large or run the other way. Potencies beside an inconclusive call are fits to weak or partial responses and may not hold up.

Chains of the proteins cited; added tags and fusions are not shown. Lines headed by an entry give the natural chain unless they say otherwise; changes in a name come on top.
UniProt P51450: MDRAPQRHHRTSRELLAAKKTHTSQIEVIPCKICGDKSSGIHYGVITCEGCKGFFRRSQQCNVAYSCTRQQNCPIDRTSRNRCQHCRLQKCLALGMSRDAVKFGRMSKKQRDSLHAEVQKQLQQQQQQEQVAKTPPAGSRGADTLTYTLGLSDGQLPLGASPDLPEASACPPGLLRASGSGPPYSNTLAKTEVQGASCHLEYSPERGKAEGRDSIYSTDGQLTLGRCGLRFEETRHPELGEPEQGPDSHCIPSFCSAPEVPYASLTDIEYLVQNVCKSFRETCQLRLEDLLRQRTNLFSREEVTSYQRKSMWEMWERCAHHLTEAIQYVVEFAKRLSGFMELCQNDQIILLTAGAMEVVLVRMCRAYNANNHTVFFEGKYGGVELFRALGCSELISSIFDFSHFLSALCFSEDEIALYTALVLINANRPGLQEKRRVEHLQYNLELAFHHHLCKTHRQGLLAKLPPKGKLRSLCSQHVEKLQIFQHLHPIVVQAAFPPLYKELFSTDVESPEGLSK

The molecules below were run against Nuclear receptor ROR-gamma (Mus musculus) (UniProt P51450) (assay: qHTS for inhibitors of ROR gamma transcriptional activity). Conditions: Drosophila S2 Gal4-RORgamma UAS-luciferase reporter, 20 h; series mostly up to 53.6 µM.
Procedure, shortened: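 Read-out: Photinus luciferase luminescence; inhibitors lower reporter signal. Insect Schneider cells with Gal4-ROR gamma fusion under metallothionein promoter, UAS reporter; 700 uM final copper sulfate induction, 20 hr, ambient temperature.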
Further: nearly all actives have a fitted effect of over 60% in size.
Potency means the concentration at half of the fitted maximal effect.

Q: Which Potency does the source give for `CCCOc1ccc(C2C(C(=O)c3cc4ccccc4o3)=C(O)C(=O)N2c2cc(C)on2)cc1` (stereo not drawn) here?
A: inconclusive: 35.5 µM [inhibitor, single point]

Q: With `O=C(Nc1ccc(C(=O)O)cc1)/C(=C\C=C\c1ccccc1)NC(=O)c1cccc(Br)c1` as the molecule, how does the Potency read?
A: inconclusive: 35.5 µM [inhibitor, single point]

Q: With `CCc1nnc(NS(=O)(=O)c2ccc(N/C=C(\C=O)c3nc4cc(Cl)ccc4o3)cc2)s1` as the molecule, how does the Potency read?
A: inconclusive: 12.6 µM [inhibitor, partial curve]
